# Out of some 360,000 compounds screened, about 7,500 (2.1%) were called active. The shares of active, inactive and inconclusive entries below differ from those in the screen. Calls come from the whole dose curve; as a rule, active = well fitted inhibition curve with a large enough effect; inconclusive = small, poorly fitted or top-dose-only effect, or effect the other way; inactive = flat fitted curve, though single readings scatter. A potency beside an inconclusive call is a rough fit, not a confirmed value.
# Assay: Nrf2 qHTS screen for inhibitors; note: nearly all actives have a fitted effect of over 60% in size
# Conditions: A549 ARE-Fluc reporter, luciferase luminescence, 18-24 h; activity change, negative = inhibition: at 46 µM (top of the series)
# Summary of the method: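 A549 ARE_Fluc cells, 5000/well, 5% FBS OPTI-MEM; compounds in dose-response, 18-24 h at 37 °C/5% CO2; CellTiter-Fluor viability read (Ex 405/Em 525), then BugLite luciferase luminescence = Nrf2 activity.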
# % is set by controls: 0 for no effect and ±100 for the full control effect; potency is the fitted concentration of half-maximal effect.
Structure (SMILES),Potency,"activity change, negative = inhibition"
CC(C)(C)S(=O)(=O)Cc1nc(-c2ccc(Cl)c(Cl)c2)cs1,"inconclusive: 29.1 µM [falling, single point]",–
Cc1ccc(NC(=O)CSCC(=O)N2c3ccccc3CCc3ccccc32)cc1,"inconclusive: 29.1 µM [falling, single point]",–
COc1cc2c(cc1OC)C(c1ccc(Cl)cc1)N(c1ccc(C)c(F)c1)C(=O)C2 (configuration not stated),"inconclusive: 18.4 µM [falling, single point]",–
COc1ccccc1N1CCN(C(=O)C(=O)c2c(C)n(C)c3ccccc23)CC1,inactive,–
O=c1oc2c(CN3CCN(CCO)CC3)c(O)ccc2cc1-c1ccccn1,inactive,–
CCN(CC)CCN(C(=O)c1ccco1)c1nc2c(C)cccc2s1,inactive,–
CN(C)S(=O)(=O)c1cc(NC(=O)CNCc2ccc(F)cc2)ccc1Cl,"inconclusive: 32.6 µM [falling, single point]",–
CC(C)(C)c1ccc(-c2noc(CCC(N)=O)n2)cc1,active: 0.13 µM,–
COc1cc(/C=C/C(=O)Nc2nnc(CC(C)C)s2)cc(OC)c1OC,inactive,–
CC(=O)NCCc1nc2ccccc2n1Cc1cc(C)ccc1C,"inconclusive: 16.4 µM [falling, partial curve, poor fit]",–
COCc1ccc(C(=O)N2CCCC(Nc3ccc(F)c(F)c3)C2)s1 (configuration not stated),"inconclusive: 5.8 µM [falling, single point]",–
Cc1ccc([N+](=O)[O-])cc1NC(=O)CCCOc1ccccc1,"inconclusive: 4.11 µM [falling, full curve, poor fit]",–
O=c1cc2c(nn1Cc1cccc([N+](=O)[O-])c1)-c1ccccc1CC2,"inconclusive: 5.17 µM [falling, full curve, poor fit]",–
CCc1cc(=O)oc2cc(OC(C)=O)cc(OC(C)=O)c12,inactive,–
CCN(CC)c1ccc(S(=O)(=O)N2CCOCC2)cc1NC(=O)CN1CCN(Cc2ccccc2)CC1,"inconclusive: 29.1 µM [falling, single point]",–
Cc1cc(C)nc(OC(C(=O)O)C(OCC(C)C)(c2ccccc2)c2ccccc2)n1 (configuration not stated),"inconclusive: 8.2 µM [falling, partial curve]",–
O=C(Nc1ccc2c(c1)CCC2)c1cnccn1,"inconclusive: 5.8 µM [activator, partial curve]",–
CCc1ccc(Nc2cc(C)nc3nc(Cc4ccc(Cl)cc4)nn23)cc1,"inconclusive: 29.1 µM [falling, single point]",–
Clc1nc(CN2CCCCC2)nc2sc3c(c12)CCCC3,inactive,–
N#Cc1c(-n2ncnc2-c2cccc(Br)c2)sc2c1CCCCC2,"inconclusive: 2.06 µM [activator, full curve]",–
FC(F)(F)c1ccc2c(c1)[nH]c(=S)n2C1CC1,"inconclusive: 29.1 µM [falling, single point]",–
CC1Cc2ccccc2N1c1nc(C2CC2)nc2c1nnn2Cc1ccccc1 (configuration not stated),inactive,–
O=C(Cc1cccs1)Nc1ccccc1-c1nc2ccccc2[nH]1,"inconclusive: 13 µM [falling, partial curve, poor fit]",–
NCCN1C(=O)S/C(=C\c2ccc3c(c2)OCO3)C1=O,"inconclusive: 29.1 µM [falling, single point]",–

Structure (SMILES),Potency,"activity change, negative = inhibition"
CC(C)(C)c1ccc(Oc2ccc(NC(=O)CCC(=O)OCC(=O)c3ccccc3)cc2)cc1,"inconclusive: 29.1 µM [falling, single point]",–
COc1ccc(C(=O)NNC(=O)Cc2ccc(-c3ccccc3)cc2)cc1OC,"inconclusive: 25.9 µM [falling, partial curve, poor fit]",–
CCC(=O)C1=C(c2ccc(OC)c(OC)c2)N(C(=O)CC)n2c(CC)nnc2S1,active: 23.1 µM,–
CCn1c2ccccc2c2cc(/C=N/NC(=O)c3cc(O)cc(O)c3)ccc21,inactive,–
CN(C)c1nc(Cl)nc(N(C#N)CCOc2ccccc2)n1,"inconclusive: 9.2 µM [falling, partial curve, poor fit]",–
CCc1cccc(NC(=S)Nc2cccc3ccccc23)c1,inactive,–
CN(C)c1ccc(-c2nnc3n(Cc4ccccc4)c(=O)c4ccccc4n23)cc1,inactive,–
O=C(CSc1cn[nH]n1)Nc1ccc(Cl)cc1Cl,"inconclusive: 5.8 µM [activator, full curve, poor fit]",–
CCOc1cc(/C=C2\N=C(C)OC2=O)cc(Br)c1OCC(=O)OC,inactive,–
CCOC(=O)c1ccc(S(=O)(=O)N2CCN(c3nc(-c4cccs4)nc4ccccc34)CC2)cc1,inactive,–
CCCSc1nc2sc3c(c2c(=O)[nH]1)CC(C)(CC)OC3 (configuration not stated),"inconclusive: 32.6 µM [falling, single point]",–
Cc1ccc(N2C(=O)c3cccc4c(Oc5ccccc5[N+](=O)[O-])ccc(c34)C2=O)c(C)c1,"inconclusive: 14.6 µM [falling, partial curve]",–
Oc1[nH]c2ccccc2c1N=Nc1ccccc1Cl,"inconclusive: 7.31 µM [activator, partial curve, poor fit]",–
O=C(NCc1ccccc1)C(Cc1ccccc1)NS(=O)(=O)c1cccc2nsnc12 (configuration not stated),"inconclusive: 0.461 µM [falling, full curve, poor fit]",–
CC(=O)c1nnn(-c2ccc(C)cc2Cl)c1C,"inconclusive: 32.6 µM [activator, single point]",–
O=C(CCn1cnnn1)Nc1cc(C(F)(F)F)cc(C(F)(F)F)c1,inactive,–
CC(C)Oc1cccc(C2CC(=O)Nc3cc4c(cc32)OCO4)c1 (configuration not stated),active: 16.4 µM,–
COc1ccc2c(c1)c1c(c(=O)n(-c3ccc(OC)c(OC)c3)c(=O)n1Cc1ccccc1F)n2C,"inconclusive: 8.2 µM [activator, partial curve, poor fit]",–
O=C1c2cccc(NCCNCCO)c2C(=O)c2cccc(NCCNCCO)c21,active: 10.3 µM,–
CCn1c(=O)c2cc(C(=O)NCC(OC)OC)sc2c2ccccc21,"inconclusive: 8.2 µM [falling, partial curve, poor fit]",–
CNC(=O)C(=O)Nc1nc(C23CC4CC(CC(C4)C2)C3)cs1,"inconclusive: 16.4 µM [activator, partial curve]",–
CCCCSCCCNC(=O)c1cn(C)c2ccc(S(=O)(=O)N3CCCCCC3)cc2c1=O,inactive,–
NC(=O)CC(NC(=O)c1ccccc1)c1ccc(N2CCCCCC2)c([N+](=O)[O-])c1 (configuration not stated),"inconclusive: 25.9 µM [falling, partial curve]",–
COc1ccccc1N1C(=O)C=C(Sc2nc(C)cc(C)n2)C1=O,inactive,–

Structure (SMILES),Potency,"activity change, negative = inhibition"
Nc1nc(-c2ccccn2)nc(N)c1Cc1c(F)cccc1Cl,"inconclusive: 32.6 µM [falling, single point]",–
Cc1ccc(Cl)cc1N1CCN(C(=O)CCCn2c(=O)[nH]c3ccc(Br)cc3c2=O)CC1,–,inactive: -26.5% [at 9.27 µM]
COc1ccccc1N1CCN(S(=O)(=O)CCNC(=O)c2ccc(OC(C)C)cc2)CC1,"inconclusive: 14.6 µM [falling, partial curve]",–
OCCN1CCSC1=S,inactive,–
O=C(Cc1ccc(Cl)c(Cl)c1)Nc1cccc(S(=O)(=O)N2CCOCC2)c1,"inconclusive: 29.1 µM [falling, single point]",–
Cc1c(C)c2cc(Cl)c(O)c(CN3CCCC(C)C3)c2oc1=O (configuration not stated),inactive,–
CC(=O)c1nn(-c2cccc(Br)c2)cc1C(=O)c1ccccc1,"inconclusive: 29.1 µM [falling, single point]",–
Nc1ccc(-c2nnc(-c3ccccc3)o2)cc1,"inconclusive: 1.16 µM [activator, full curve]",–
COc1ccccc1C1=NN(C(=S)Nc2ccccc2)C(c2ccco2)C1 (configuration not stated),"inconclusive: 14.6 µM [activator, partial curve]",–
CCc1nc(SCC(=O)N2CCN(c3ccccc3)CC2)c2oc3ccccc3c2n1,"inconclusive: 18.4 µM [falling, single point]",–
CCn1cc(CN2CCC(C(=O)Nc3ccc(Oc4ccccc4)nc3)CC2)cn1,"inconclusive: 3.66 µM [falling, full curve, poor fit]",–
O=C(NCc1ccccc1Cl)c1ccc(Cn2c(SCc3ccccc3)nc3cccnc32)cc1,"inconclusive: 23.1 µM [falling, single point]",–
Cc1ccccc1Cn1c2ccccc2c2cnn(CC(=O)NCC(C)c3ccccc3)c(=O)c21 (configuration not stated),inactive,–
O=C(Nc1ccc(Cl)c(Cl)c1)Nc1ccc(N2CCCC2)c(S(=O)(=O)Nc2ccccc2Cl)c1,active: 13 µM,–
Cc1cccc(OCC(=O)N/N=C/C=C/c2ccco2)c1,inactive,–
Cc1ocnc1C(=O)Nc1ccc(Cl)cc1,"inconclusive: 14.6 µM [activator, partial curve]",–
O=C(NCCCCc1ccccc1)Nc1ccc(F)cc1,"inconclusive: 32.6 µM [falling, partial curve, poor fit]",–
COc1ccc(N/C=C/C(=O)c2ccccc2)cc1,"inconclusive: 5.17 µM [activator, full curve]",–
CS(=O)(=O)Nc1ccc(C2=NN(S(C)(=O)=O)C(c3ccccc3)C2)cc1 (configuration not stated),"inconclusive: 1.64 µM [activator, full curve, poor fit]",–
CCOC(=O)N1CCC(NC(=O)c2ccc3c(c2)N(Cc2ccc(F)cc2)CCS3)CC1,active: 25.9 µM,–
O=[N+]([O-])c1ccc(S(=O)(=O)Nc2ccc3c(c2)OCCO3)cc1,inactive,–
Cc1ccc(C(=O)/C=C/C(=O)O)cc1,inactive,–
CC1CCN(c2ccc(NC(=O)C3CCCN3S(=O)(=O)c3ccc(F)cc3)cc2)CC1 (configuration not stated),inactive,–
COc1cc(O)c2c(=O)c3c(OC)c(O)ccc3oc2c1,"inconclusive: 29.1 µM [activator, single point]",–

# Two of the compounds above, with tabs.
Structure (SMILES)	Potency	activity change, negative = inhibition
COc1ccccc1N1C(=O)C=C(Sc2nc(C)cc(C)n2)C1=O	inactive	–
Nc1nc(-c2ccccn2)nc(N)c1Cc1c(F)cccc1Cl	inconclusive: 32.6 µM [falling, single point]	–

# Compounds listed so far with a cyano group (2):
Structure (SMILES),Potency,"activity change, negative = inhibition"
N#Cc1c(-n2ncnc2-c2cccc(Br)c2)sc2c1CCCCC2,"inconclusive: 2.06 µM [activator, full curve]",–
CN(C)c1nc(Cl)nc(N(C#N)CCOc2ccccc2)n1,"inconclusive: 9.2 µM [falling, partial curve, poor fit]",–

# — PubChem BioAssay AID504444 (National Center for Advancing Translational Sciences (NCATS), 2011)
